Measurements as given in the supplement of paper PMC10849652.
The list shows a part of the results.

Sequences of proteins named here, by UniProt entry; tags and fusion partners are left off. A change or cut given only in a name is not applied to a line headed by its entry.
UniProt Q6PD74: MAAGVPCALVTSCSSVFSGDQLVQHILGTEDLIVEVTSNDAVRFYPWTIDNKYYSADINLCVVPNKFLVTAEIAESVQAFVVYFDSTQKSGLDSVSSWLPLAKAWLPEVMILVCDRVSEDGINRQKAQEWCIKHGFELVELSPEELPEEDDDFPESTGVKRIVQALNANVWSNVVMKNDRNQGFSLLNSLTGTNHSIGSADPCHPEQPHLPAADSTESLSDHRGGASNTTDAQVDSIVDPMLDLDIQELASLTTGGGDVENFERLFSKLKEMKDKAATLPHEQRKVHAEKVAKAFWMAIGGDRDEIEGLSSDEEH
UniProt Q99798: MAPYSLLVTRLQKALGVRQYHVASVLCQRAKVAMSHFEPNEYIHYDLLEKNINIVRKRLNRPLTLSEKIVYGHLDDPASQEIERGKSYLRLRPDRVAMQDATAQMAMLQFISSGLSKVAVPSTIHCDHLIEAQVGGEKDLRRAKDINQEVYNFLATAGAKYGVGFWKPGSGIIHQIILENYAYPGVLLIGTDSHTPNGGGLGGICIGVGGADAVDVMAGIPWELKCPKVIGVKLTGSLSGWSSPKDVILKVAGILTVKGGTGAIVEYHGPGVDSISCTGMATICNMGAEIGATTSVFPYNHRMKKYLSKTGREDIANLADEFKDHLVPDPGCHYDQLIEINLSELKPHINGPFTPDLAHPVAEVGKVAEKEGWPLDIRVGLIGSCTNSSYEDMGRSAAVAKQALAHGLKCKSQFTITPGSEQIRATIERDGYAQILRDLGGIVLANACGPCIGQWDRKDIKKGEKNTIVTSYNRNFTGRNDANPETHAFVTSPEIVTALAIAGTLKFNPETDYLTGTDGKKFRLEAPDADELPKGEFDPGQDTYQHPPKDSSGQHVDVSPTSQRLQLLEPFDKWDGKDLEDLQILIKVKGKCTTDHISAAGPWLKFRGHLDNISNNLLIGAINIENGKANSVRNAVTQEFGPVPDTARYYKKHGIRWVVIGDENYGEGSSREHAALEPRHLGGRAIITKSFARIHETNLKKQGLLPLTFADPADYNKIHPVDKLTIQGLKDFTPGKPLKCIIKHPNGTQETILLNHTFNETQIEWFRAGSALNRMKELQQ
UniProt P09110: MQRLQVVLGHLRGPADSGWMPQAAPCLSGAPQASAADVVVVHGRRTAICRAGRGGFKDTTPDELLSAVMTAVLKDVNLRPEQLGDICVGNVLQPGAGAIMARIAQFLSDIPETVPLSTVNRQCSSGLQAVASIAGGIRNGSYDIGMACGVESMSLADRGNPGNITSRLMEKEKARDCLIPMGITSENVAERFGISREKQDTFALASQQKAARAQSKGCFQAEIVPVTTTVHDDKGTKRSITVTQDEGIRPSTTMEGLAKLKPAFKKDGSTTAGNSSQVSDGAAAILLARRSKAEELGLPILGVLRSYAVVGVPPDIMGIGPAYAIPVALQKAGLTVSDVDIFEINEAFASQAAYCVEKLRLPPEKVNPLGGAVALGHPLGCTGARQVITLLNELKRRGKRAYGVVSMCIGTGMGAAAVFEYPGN
UniProt Q2M2I8: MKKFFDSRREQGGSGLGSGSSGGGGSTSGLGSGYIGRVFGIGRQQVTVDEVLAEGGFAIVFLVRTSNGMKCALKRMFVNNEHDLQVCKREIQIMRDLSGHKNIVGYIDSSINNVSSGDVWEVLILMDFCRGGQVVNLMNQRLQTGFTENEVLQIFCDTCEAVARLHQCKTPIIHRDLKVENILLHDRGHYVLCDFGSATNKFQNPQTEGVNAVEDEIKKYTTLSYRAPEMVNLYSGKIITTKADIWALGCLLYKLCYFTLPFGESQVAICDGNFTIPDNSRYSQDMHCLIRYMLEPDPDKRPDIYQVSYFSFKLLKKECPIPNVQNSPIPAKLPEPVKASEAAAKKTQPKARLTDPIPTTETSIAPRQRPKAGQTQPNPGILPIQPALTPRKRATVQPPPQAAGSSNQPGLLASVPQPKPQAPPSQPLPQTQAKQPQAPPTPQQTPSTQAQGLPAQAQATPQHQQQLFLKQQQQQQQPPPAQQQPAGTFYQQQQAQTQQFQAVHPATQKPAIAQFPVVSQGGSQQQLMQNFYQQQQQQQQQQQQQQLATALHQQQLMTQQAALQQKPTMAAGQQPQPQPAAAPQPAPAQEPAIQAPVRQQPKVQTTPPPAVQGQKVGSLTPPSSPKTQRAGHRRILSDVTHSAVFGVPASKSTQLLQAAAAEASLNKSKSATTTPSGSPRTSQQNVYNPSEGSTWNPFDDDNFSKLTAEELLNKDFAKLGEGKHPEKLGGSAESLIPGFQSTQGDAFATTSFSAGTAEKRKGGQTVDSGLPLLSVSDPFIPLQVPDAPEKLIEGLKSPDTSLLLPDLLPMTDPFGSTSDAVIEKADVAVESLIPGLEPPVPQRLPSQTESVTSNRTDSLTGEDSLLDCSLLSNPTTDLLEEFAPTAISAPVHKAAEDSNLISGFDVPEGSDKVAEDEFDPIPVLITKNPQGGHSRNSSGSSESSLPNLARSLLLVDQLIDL
UniProt Q9NP58: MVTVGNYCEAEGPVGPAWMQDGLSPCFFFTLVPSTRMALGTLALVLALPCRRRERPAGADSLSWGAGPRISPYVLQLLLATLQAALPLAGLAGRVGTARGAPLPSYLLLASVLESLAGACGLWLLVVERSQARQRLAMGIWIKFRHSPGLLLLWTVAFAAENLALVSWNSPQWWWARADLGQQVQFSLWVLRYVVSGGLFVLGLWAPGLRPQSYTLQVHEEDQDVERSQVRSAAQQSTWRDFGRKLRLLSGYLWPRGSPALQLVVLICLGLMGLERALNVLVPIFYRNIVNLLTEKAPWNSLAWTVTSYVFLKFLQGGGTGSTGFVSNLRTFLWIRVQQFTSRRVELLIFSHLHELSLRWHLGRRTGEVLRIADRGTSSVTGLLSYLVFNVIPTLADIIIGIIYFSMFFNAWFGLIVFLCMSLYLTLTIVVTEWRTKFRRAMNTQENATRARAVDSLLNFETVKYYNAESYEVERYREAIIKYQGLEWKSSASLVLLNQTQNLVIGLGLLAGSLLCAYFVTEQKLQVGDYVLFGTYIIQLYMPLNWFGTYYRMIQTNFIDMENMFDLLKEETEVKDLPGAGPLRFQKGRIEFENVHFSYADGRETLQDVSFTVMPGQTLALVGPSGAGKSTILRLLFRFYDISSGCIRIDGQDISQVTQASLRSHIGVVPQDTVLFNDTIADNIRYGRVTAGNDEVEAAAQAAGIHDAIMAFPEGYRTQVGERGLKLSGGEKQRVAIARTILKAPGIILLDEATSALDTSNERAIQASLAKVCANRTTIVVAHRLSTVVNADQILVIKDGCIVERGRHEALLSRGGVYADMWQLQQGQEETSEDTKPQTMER
UniProt Q5VST6: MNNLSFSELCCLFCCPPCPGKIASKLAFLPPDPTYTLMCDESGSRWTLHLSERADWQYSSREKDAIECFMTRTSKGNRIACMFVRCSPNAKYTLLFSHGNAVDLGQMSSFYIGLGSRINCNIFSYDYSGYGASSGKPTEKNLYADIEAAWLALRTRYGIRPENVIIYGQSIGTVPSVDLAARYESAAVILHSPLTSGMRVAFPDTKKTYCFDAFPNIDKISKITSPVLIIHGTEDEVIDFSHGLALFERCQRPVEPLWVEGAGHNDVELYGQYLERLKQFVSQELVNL
UniProt Q9H7C9: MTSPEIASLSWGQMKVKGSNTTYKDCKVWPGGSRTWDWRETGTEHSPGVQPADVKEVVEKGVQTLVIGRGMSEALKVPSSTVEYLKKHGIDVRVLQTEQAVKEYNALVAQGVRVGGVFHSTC
UniProt Q9NX38: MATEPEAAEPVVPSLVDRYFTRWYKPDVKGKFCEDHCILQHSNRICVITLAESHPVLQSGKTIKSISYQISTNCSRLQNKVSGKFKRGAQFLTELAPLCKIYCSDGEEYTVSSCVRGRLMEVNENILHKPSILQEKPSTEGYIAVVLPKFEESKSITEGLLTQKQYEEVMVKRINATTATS
UniProt Q9BWD1: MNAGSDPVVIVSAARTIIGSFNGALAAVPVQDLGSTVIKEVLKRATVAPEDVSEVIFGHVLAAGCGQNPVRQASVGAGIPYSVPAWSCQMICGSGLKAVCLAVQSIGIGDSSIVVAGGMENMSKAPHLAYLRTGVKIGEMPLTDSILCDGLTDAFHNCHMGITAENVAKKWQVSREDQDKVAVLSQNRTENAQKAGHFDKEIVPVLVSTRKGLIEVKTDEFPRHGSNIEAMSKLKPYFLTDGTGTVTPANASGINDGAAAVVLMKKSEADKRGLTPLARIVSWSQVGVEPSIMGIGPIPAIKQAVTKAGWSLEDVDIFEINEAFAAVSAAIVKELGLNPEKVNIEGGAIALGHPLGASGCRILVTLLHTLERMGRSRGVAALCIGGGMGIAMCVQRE
UniProt O14639: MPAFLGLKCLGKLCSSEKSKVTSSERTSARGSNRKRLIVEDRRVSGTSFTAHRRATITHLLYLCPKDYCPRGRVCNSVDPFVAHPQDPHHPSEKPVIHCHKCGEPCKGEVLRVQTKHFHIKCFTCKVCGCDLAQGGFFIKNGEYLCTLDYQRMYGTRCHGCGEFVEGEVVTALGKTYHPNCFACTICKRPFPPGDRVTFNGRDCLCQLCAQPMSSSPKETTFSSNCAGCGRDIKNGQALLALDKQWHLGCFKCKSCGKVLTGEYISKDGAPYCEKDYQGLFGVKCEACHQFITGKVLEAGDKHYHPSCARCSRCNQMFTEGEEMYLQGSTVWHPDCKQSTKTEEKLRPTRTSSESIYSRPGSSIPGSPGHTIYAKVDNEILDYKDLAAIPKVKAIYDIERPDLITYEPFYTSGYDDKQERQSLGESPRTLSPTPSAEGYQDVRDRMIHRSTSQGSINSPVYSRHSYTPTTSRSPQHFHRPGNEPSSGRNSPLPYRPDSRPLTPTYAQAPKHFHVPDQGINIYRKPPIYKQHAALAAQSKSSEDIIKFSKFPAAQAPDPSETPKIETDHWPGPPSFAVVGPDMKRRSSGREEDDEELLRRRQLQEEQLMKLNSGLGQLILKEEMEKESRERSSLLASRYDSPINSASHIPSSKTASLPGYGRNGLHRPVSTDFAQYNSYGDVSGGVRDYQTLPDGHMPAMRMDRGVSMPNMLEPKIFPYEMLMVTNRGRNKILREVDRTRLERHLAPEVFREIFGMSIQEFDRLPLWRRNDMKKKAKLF
UniProt Q9H3P7: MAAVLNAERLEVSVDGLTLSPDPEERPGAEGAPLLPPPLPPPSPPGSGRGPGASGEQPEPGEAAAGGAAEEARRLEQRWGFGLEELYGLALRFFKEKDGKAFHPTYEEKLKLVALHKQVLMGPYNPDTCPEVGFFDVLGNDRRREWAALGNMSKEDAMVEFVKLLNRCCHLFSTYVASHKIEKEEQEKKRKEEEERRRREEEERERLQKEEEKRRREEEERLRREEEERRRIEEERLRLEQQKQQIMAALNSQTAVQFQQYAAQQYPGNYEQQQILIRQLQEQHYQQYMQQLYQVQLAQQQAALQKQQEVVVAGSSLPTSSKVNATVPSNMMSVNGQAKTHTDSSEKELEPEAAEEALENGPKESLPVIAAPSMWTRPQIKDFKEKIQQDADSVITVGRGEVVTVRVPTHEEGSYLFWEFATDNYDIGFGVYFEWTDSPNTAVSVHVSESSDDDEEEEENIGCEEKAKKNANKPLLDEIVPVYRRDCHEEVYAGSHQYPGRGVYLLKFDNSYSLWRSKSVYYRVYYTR
UniProt Q96QU6: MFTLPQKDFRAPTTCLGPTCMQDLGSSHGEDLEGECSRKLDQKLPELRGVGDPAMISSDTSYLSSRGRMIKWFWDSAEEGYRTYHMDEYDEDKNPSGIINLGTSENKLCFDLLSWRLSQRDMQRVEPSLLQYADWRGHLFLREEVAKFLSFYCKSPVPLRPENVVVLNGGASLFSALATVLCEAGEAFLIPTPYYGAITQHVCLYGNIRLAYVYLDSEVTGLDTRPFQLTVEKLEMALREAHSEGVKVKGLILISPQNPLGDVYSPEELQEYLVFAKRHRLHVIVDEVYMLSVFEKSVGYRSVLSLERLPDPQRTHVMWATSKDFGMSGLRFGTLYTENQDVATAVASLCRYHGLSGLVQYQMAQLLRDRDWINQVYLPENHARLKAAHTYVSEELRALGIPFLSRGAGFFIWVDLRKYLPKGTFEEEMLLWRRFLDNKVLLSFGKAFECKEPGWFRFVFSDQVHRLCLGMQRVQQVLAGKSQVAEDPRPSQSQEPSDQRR
UniProt Q9Y312: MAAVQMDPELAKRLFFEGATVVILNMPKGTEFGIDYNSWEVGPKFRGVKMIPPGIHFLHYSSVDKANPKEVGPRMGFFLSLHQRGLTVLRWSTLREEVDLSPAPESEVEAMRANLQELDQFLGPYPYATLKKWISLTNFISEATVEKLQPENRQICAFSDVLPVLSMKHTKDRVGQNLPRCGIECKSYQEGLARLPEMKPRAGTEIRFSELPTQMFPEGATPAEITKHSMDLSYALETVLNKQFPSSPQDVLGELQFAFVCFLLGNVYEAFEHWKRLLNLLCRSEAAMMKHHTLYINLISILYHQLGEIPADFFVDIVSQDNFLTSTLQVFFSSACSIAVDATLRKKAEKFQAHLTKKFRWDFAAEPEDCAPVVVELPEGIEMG

Legend:
Experiment in all cases: log2 fold change, soluble protein after heating vs DMSO (PISA); higher = thermal stabilisation; K562 lysate, 10 uM; active = over 0.2 and 3.5 SD of the protein, either way, in both replicates (recomputed)
lapatinib = compound: CS(=O)(=O)CCNCc1ccc(-c2ccc3ncnc(Nc4ccc(OCc5cccc(F)c5)c(Cl)c4)c3c2)o1 [lapatinib]
In short: (§1)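 To prepare the extract, K562 pellets were dounce-homogenised in PBS pH 7.4 with 1 mM MgCl2, giving crude material at 1 mg/mL protein. This was treated with 10 μM compound for 30 min, then heated in aliquots for 3 min over 48°C-58°C before pooling and addition of NP-40 to 0.5% at 4°C. Centrifugation at 21,000xg for 90 min left soluble protein in the supernatant, which TMTpro 16plex LC-MS/MS quantified with equalised channel sums. Results are log-two fold changes in thermal stability compared with solvent controls, from duplicates.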

pictilisib = compound: CS(=O)(=O)N1CCN(Cc2cc3nc(-c4cccc5[nH]ncc45)nc(N4CCOCC4)c3s2)CC1 [pictilisib]
In short: as §1

crizotinib = compound: C[C@@H](Oc1cc(-c2cnn(C3CCNCC3)c2)cnc1N)c1c(Cl)ccc(F)c1Cl [crizotinib]
In short: as §1

[1] = compound: C[C@H](C1=CC=C(C=C1)C(=O)NC2=C3C=CNC3=NC=C2)N
In short: as §1

duvelisib = compound: C[C@H](Nc1ncnc2nc[nH]c12)c1cc2cccc(Cl)c2c(=O)n1-c1ccccc1 [duvelisib]
In short: as §1

gandotinib = compound: Cc1cc(Nc2cc(CN3CCOCC3)c3nc(C)c(Cc4ccc(Cl)cc4F)n3n2)n[nH]1 [gandotinib]
In short: as §1

tozasertib = compound: Cc1cc(Nc2cc(N3CCN(C)CC3)nc(Sc3ccc(NC(=O)C4CC4)cc3)n2)n[nH]1 [tozasertib]
In short: as §1

doramapimod = compound: Cc1ccc(-n2nc(C(C)(C)C)cc2NC(=O)Nc2ccc(OCCN3CCOCC3)c3ccccc23)cc1 [doramapimod]
In short: as §1

bafetinib = compound: Cc1ccc(NC(=O)c2ccc(CN3CC[C@H](N(C)C)C3)c(C(F)(F)F)c2)cc1Nc1nccc(-c2cncnc2)n1 [bafetinib]
In short: as §1

[2] = compound: Cc1cccc(CC(=O)N2CCc3c2ccc(-c2cn(C)c4ncnc(N)c24)c3F)n1
In short: as §1

nilotinib = compound: Cc1cn(-c2cc(NC(=O)c3ccc(C)c(Nc4nccc(-c5cccnc5)n4)c3)cc(C(F)(F)F)c2)cn1 [nilotinib]
In short: as §1

[3] = compound: Cc1nc(Nc2n[nH]c3c2CN(C(=O)N[C@H](CN(C)C)c2ccccc2)C3(C)C)c2sccc2n1
In short: as §1

dasatinib = compound: Cc1nc(Nc2ncc(C(=O)Nc3c(C)cccc3Cl)s2)cc(N2CCN(CCO)CC2)n1 [dasatinib]
In short: as §1

[4] = compound: Cc1ncc(-c2ccnc(Nc3ccc(S(C)(=O)=O)cc3)n2)n1C(C)C
In short: as §1

[5] = compound: Cn1cc(-c2ccc3c(c2)CCN3C(=O)Cc2cccc(C(F)(F)F)c2)c2c(N)ncnc21
In short: as §1

quisinostat = compound: Cn1cc(CNCC2CCN(c3ncc(C(=O)NO)cn3)CC2)c2ccccc21 [quisinostat]
In short: as §1

tipifarnib = compound: Cn1cncc1[C@@](N)(c1ccc(Cl)cc1)c1ccc2c(c1)c(-c1cccc(Cl)c1)cc(=O)n2C [tipifarnib]
In short: as §1

[6] = compound: NC(=O)Nc1cc(-c2cccc(F)c2)sc1C(=O)N[C@H]1CCCNC1
In short: as §1

[7] = compound: NC(=O)c1cnc(N[C@@H]2CCCC[C@@H]2N)nc1Nc1cccc(-n2nccn2)c1
In short: as §1

[8] = compound: NC1(c2ccc(-c3nc4ccn5c(=O)[nH]nc5c4cc3-c3ccccc3)cc2)CCC1
In short: as §1

Measured: log2 fold change

AAGAB (UniProt Q6PD74)
inactive: lapatinib 0.028 | pictilisib -0.029 | crizotinib -0.101 | [1] -0.017 | duvelisib -0.048 | gandotinib 0.053 | tozasertib -0.04 | doramapimod 0.026 | bafetinib -0.005 | [2] 0.014 | nilotinib 0.011 | [3] 0.043 | dasatinib -0.033 | [4] -0.034 | [5] 0 | quisinostat -0.007 | tipifarnib 0.03 | [6] -0.014 | [7] 0.007 | [8] -0.043

ACO2 (UniProt Q99798)
inactive: lapatinib -0.006 | pictilisib 0.002 | crizotinib -0.02 | [1] -0.078 | duvelisib 0 | gandotinib 0.036 | tozasertib 0.009 | doramapimod 0 | bafetinib -0.007 | [2] 0.024 | nilotinib -0.007 | [3] -0.003 | dasatinib -0.013 | [4] 0.005 | [5] 0.019 | quisinostat -0.009 | tipifarnib 0.008 | [6] -0.015 | [7] 0.022 | [8] -0.019

ACAA1 (UniProt P09110)
inactive: lapatinib 0.017 | pictilisib -0.005 | crizotinib 0.014 | [1] -0.015 | duvelisib -0.014 | gandotinib 0.056 | tozasertib -0.043 | doramapimod -0.001 | bafetinib 0.045 | [2] -0.011 | nilotinib 0.035 | [3] -0.019 | dasatinib 0.014 | [4] -0.007 | [5] -0.027 | quisinostat -0.026 | tipifarnib 0.011 | [6] -0.001 | [7] -0.016 | [8] 0.009

ABCC4 (UniProt O15439)
inactive: lapatinib -0.105 | pictilisib 0.019 | crizotinib 0.014 | [1] -0.069 | duvelisib 0.005 | gandotinib 0.035 | tozasertib 0.028 | doramapimod 0.007 | bafetinib -0.056 | [2] 0.001 | nilotinib -0.021 | [3] 0.036 | dasatinib 0.051 | [4] 0.019 | [5] 0.012 | quisinostat -0.018 | tipifarnib 0.006 | [6] -0.003 | [7] 0.01 | [8] -0.017

AAK1 (UniProt Q2M2I8)
inactive: lapatinib -0.087 | pictilisib 0.047 | crizotinib 0.248 | [1] 0.411 | duvelisib -0.005 | gandotinib 0.358 | tozasertib 0.055 | doramapimod -0.018 | bafetinib -0.003 | [2] -0.084 | nilotinib -0.045 | [3] 0.45 | dasatinib 0.042 | [4] 0.42 | [5] -0.005 | quisinostat -0.074 | tipifarnib 0 | [6] 0.522 | [7] 0.086 | [8] -0.042

ABCB6 (UniProt Q9NP58)
inactive: lapatinib 0.008 | pictilisib -0.024 | crizotinib 0.026 | [1] -0.054 | duvelisib 0.027 | gandotinib -0.016 | tozasertib -0.001 | doramapimod -0.024 | bafetinib -0.059 | [2] 0.017 | nilotinib 0.016 | [3] 0.028 | dasatinib 0.026 | [4] -0.023 | [5] -0.028 | quisinostat -0.018 | tipifarnib 0.024 | [6] 0.024 | [7] -0.01 | [8] -0.046

ABHD17B (UniProt Q5VST6)
active: tozasertib -0.513
inactive: lapatinib 0.075 | pictilisib -0.076 | crizotinib -0.051 | [1] 0.01 | duvelisib 0.026 | gandotinib -0.012 | doramapimod -0.026 | bafetinib 0.01 | [2] 0.183 | nilotinib 0.032 | [3] 0.057 | dasatinib 0.007 | [4] 0.087 | [5] 0.095 | quisinostat 0.003 | tipifarnib -0.099 | [6] 0.009 | [7] -0.041 | [8] 0.009

AAMDC (UniProt Q9H7C9)
inactive: lapatinib 0.02 | pictilisib -0.046 | crizotinib 0.007 | [1] 0.025 | duvelisib -0.006 | gandotinib -0.045 | tozasertib 0.039 | doramapimod 0.022 | bafetinib -0.024 | [2] -0.014 | nilotinib 0.097 | [3] 0.006 | dasatinib 0.041 | [4] -0.045 | [5] 0.031 | quisinostat -0.03 | tipifarnib 0.081 | [6] -0.045 | [7] -0.044 | [8] 0.002

ABITRAM (UniProt Q9NX38)
inactive: lapatinib -0.041 | pictilisib -0.046 | crizotinib 0.004 | [1] -0.154 | duvelisib -0.02 | gandotinib 0.042 | tozasertib 0.019 | doramapimod -0.012 | bafetinib -0.043 | [2] 0.023 | nilotinib -0.022 | [3] 0.037 | dasatinib 0.115 | [4] 0.008 | [5] 0.039 | quisinostat -0.047 | tipifarnib -0.001 | [6] 0.073 | [7] -0.085 | [8] -0.021

ACAT2 (UniProt Q9BWD1)
inactive: lapatinib -0.031 | pictilisib 0.051 | crizotinib 0 | [1] 0.004 | duvelisib 0.043 | gandotinib 0 | tozasertib -0.028 | doramapimod -0.007 | bafetinib 0.037 | [2] -0.023 | nilotinib 0.019 | [3] -0.017 | dasatinib 0.026 | [4] 0.001 | [5] -0.02 | quisinostat 0.049 | tipifarnib 0.013 | [6] -0.034 | [7] -0.006 | [8] 0.014

ABLIM1 (UniProt O14639)
inactive: lapatinib 0.048 | pictilisib 0.042 | crizotinib -0.143 | [1] -0.121 | duvelisib -0.029 | gandotinib 0.155 | tozasertib -0.017 | doramapimod -0.013 | bafetinib -0.056 | [2] 0.181 | nilotinib -0.107 | [3] -0.005 | dasatinib -0.039 | [4] -0.009 | [5] -0.014 | quisinostat -0.233 | tipifarnib -0.028 | [6] 0.032 | [7] 0.017 | [8] -0.022

A0A096LPI6, A0A096LPI6
inactive: lapatinib 0.021 | pictilisib -0.03 | crizotinib 0.012 | [1] 0.048 | duvelisib 0.033 | gandotinib -0.036 | tozasertib 0.012 | doramapimod -0.075 | bafetinib 0.005 | [2] -0.038 | nilotinib -0.001 | [3] -0.014 | dasatinib -0.004 | [4] 0.002 | [5] 0.009 | quisinostat 0.036 | tipifarnib 0.027 | [6] -0.034 | [7] -0.018 | [8] 0.015

Two entries drawn at random from those above, as already listed:
ABCB6 (UniProt Q9NP58)
inactive: lapatinib 0.008 | pictilisib -0.024 | crizotinib 0.026 | [1] -0.054 | duvelisib 0.027 | gandotinib -0.016 | tozasertib -0.001 | doramapimod -0.024 | bafetinib -0.059 | [2] 0.017 | nilotinib 0.016 | [3] 0.028 | dasatinib 0.026 | [4] -0.023 | [5] -0.028 | quisinostat -0.018 | tipifarnib 0.024 | [6] 0.024 | [7] -0.01 | [8] -0.046

ABITRAM (UniProt Q9NX38)
inactive: lapatinib -0.041 | pictilisib -0.046 | crizotinib 0.004 | [1] -0.154 | duvelisib -0.02 | gandotinib 0.042 | tozasertib 0.019 | doramapimod -0.012 | bafetinib -0.043 | [2] 0.023 | nilotinib -0.022 | [3] 0.037 | dasatinib 0.115 | [4] 0.008 | [5] 0.039 | quisinostat -0.047 | tipifarnib -0.001 | [6] 0.073 | [7] -0.085 | [8] -0.021

The results go on.

ACBD3 (UniProt Q9H3P7)
inactive: lapatinib 0.009 | pictilisib 0.024 | crizotinib 0.02 | [1] 0.028 | duvelisib 0.013 | gandotinib -0.025 | tozasertib -0.034 | doramapimod 0.002 | bafetinib -0.014 | [2] 0.014 | nilotinib 0.001 | [3] 0.006 | dasatinib 0.029 | [4] 0.012 | [5] 0.002 | quisinostat -0.027 | tipifarnib 0.021 | [6] 0.003 | [7] 0.024 | [8] 0.03

AAMP (UniProt Q13685)
inactive: lapatinib -0.04 | pictilisib -0.022 | crizotinib -0.007 | [1] 0.026 | duvelisib 0.008 | gandotinib -0.019 | tozasertib -0.001 | doramapimod 0.023 | bafetinib -0.04 | [2] -0.069 | nilotinib 0.046 | [3] -0.001 | dasatinib 0.027 | [4] 0.065 | [5] 0.027 | quisinostat -0.015 | tipifarnib 0.007 | [6] -0.019 | [7] -0.002 | [8] 0.02

ACCS (UniProt Q96QU6)
inactive: lapatinib -0.035 | pictilisib -0.041 | crizotinib -0.169 | [1] -0.209 | duvelisib -0.09 | gandotinib 0.198 | tozasertib -0.028 | doramapimod -0.037 | bafetinib -0.271 | [2] 0.39 | nilotinib -0.001 | [3] -0.06 | dasatinib -0.016 | [4] 0.16 | [5] -0.116 | quisinostat -0.22 | tipifarnib -0.05 | [6] 0.024 | [7] 0.031 | [8] -0.098

AAR2 (UniProt Q9Y312)
inactive: lapatinib -0.011 | pictilisib 0.012 | crizotinib 0.007 | [1] 0.006 | duvelisib 0.027 | gandotinib -0.016 | tozasertib 0.014 | doramapimod -0.007 | bafetinib -0.078 | [2] 0.006 | nilotinib 0.007 | [3] -0.037 | dasatinib 0.009 | [4] -0.022 | [5] 0.013 | quisinostat 0.008 | tipifarnib 0.016 | [6] -0.008 | [7] 0.02 | [8] 0.015
